This is a noisy data set.
B1: human tRNA-Pro; a variant is named by its letters at N, in order (parent)
chain: GGCTCGTTGGTCTAGNGGTATGATTCTCGCTTAGGGTGCGAGAGGTCCCGGGTTCNNATCCCGGACGAGCCC

Columns and labels:
[1] = variants of: B1; assay: tRNA Pol-III promoter activity, log2 (circRNA frequency / plasmid DNA frequency) (log2 ratio); higher = stronger promoter activity; details: HEK293T; construct: no Pol-II promoter ((-)CMV library)
[2] = variants of: B1; assay: tRNA 3' processing efficiency (processed reads / all reads, maximum-likelihood estimate) (fraction); higher = more efficient 3' processing; details: HEK293T; construct: no Pol-II promoter ((-)CMV library)
[3] = variants of: B1; assay: tRNA 5' processing efficiency (processed reads / all reads, maximum-likelihood estimate) (fraction); higher = more efficient 5' processing; details: HEK293T; construct: CMV Pol-II promoter ((+)CMV library, decapped)

Variant	tRNA Pol-III promoter activity (log2) [1]	tRNA 3' processing efficiency [2]	tRNA 5' processing efficiency [3]
GGCTCGTTGGTCTAGGGGTATGATTCTCGCTTAGGGTGCGAGAGGTCCCGGGTACACAGCCCGGACGAGCCC	4.26	0.71	
GGCTCGTTGGTCTAGGGGATTGATTCTCGCTTAGGGTGCGAGAGGTCCCGGGTTCACATCCCGGACGAGCCC	3.45	0.25	
GGCTCGTTGGTCTAGGGGACTGATTCTCGCTTAGGGTGCGAGAGGTCCCGGGTTCACATCCCGGACGAGCCC	5.15	0.62	
GGCTCGTTGGTCTAGCGGCATGATTCTCGCTTAGGGTGCGAGAGGTCCCGGGATCACATCCCGGACGAGCCC	4.68	0.6	
GGCTCGTTGGTCTAGCGGTATGATTCTCGCTTAGGGTGCGAGAGGTCCCGGGTTCAGATCCCGGACGAGCCC	2.32	0.36	0.14
GGCTCGTTGGTCTAGGGGTATGATTCTCGCTTAGGGTGCGAGAGGTCCCGGGTTCAGATCCCGGACGAGCCC	2.22	0.35	0.15
GGCTCGTTGGTCTAGGGGCATGATTCTCGCTTAGGGTGCGAGAGGTCCCGGGTTGACATCCCGGACGAGCCC	5.96	0.84	
GGCTCGTTGGTCTAGGGGAGTGATTCTCGCTTAGGGTGCGAGAGGTCCCGGGTTCACTTCCCGGACGAGCCC	6.03	0.13	
GGCTCGTTGGTCTCGGGGTATGATTCTCGCTTAGGGTGCGAGAGGTCCCGGGTTCAGATCCCGGACGAGCCC	2.69	0.4	
GGCTCGTTGGTCTAGAGGTATGATTCTCGCTTAGGGTGCGAGAGGTCCCGGGTTCAGATCCCGGACGAGCCC	2.89	0.45	0.25
GGCTCGTTGGTCTAGGGGAATGATTCTCGCTTAGGGTGCGAGAGGTCCCGGGATCACATCCCGGACGAGCCC	4.05	0.31	
GGCTCGTTGGTCTAGGGGGATGATTCTCGCTTAGGGTGCGAGAGGTCCCGGGTTCACACCCCGGACGAGCCC	3.94	0.25	
GGCTCGTTGGTCTAGAGGAATGATTCTCGCTTAGGGTGCGAGAGGTCCCGGGTTCACATCCCGGACGAGCCC	3.9	0.4	
GGCTCGTTGGTCTAGTGGTATGATTCTCGCTTAGGGTGCGAGAGGTCCCGGGGTCACATCCCGGACGAGCCC	3.36	0.67	
GGCTCGTTGGTCTAGTGGTATGATTCTCGCTTAGGGTGCGAGAGGTCCCGGGATCACATCCCGGACGAGCCC	3.94	0.67	
GGCTCGTTGGTCTAGCGGAATGATTCTCGCTTAGGGTGCGAGAGGTCCCGGGTTCACATCCCGGACGAGCCC	2.81	0.5	
GGCTCGTTGGTCTAGCGGCATGATTCTCGCTTAGGGTGCGAGAGGTCCCGGGTTCACATCCCGGACGAGCCC	4.36	0.38	
GGCTCGTTGGTCTAGCGGGATGATTCTCGCTTAGGGTGCGAGAGGTCCCGGGTTCACATCCCGGACGAGCCC	5.32	0.15	0.25

Part of the list above, showing only tRNA 3' processing efficiency [2] and tRNA 5' processing efficiency [3].

| Variant | tRNA 3' processing efficiency [2] | tRNA 5' processing efficiency [3] |
| --- | --- | --- |
| GGCTCGTTGGTCTAGTGGTATGATTCTCGCTTAGGGTGCGAGAGGTCCCGGGGTCACATCCCGGACGAGCCC | 0.67 |  |
| GGCTCGTTGGTCTAGTGGTATGATTCTCGCTTAGGGTGCGAGAGGTCCCGGGATCACATCCCGGACGAGCCC | 0.67 |  |
| GGCTCGTTGGTCTAGCGGAATGATTCTCGCTTAGGGTGCGAGAGGTCCCGGGTTCACATCCCGGACGAGCCC | 0.5 |  |

Further results

Variant	tRNA Pol-III promoter activity (log2) [1]	tRNA 3' processing efficiency [2]	tRNA 5' processing efficiency [3]
GGCTCGTTGGTCTAGCGGTATGATTCTCGCTTAGGGTGCGAGAGGTCCCGGGTTCACAACCCGGACGAGCCC	5.36	0.2	
GGCTCGTTGGTCTAGGGGCATGATTCTCGCTTAGGGTGCGAGAGGTCCCGGGTTCACGTCCCGGACGAGCCC	4.84	0.29	
GGCTCGTTGGTCTAGGGGAATGATTCTCGCTTAGGGTGCGAGAGGTCCCGGGTTCACAGCCCGGACGAGCCC	5.93	0.25	
GGCTCGTTGGTCTAGGGGGTTGATTCTCGCTTAGGGTGCGAGAGGTCCCGGGTTCACATCCCGGACGAGCCC	2.55	0.2	
GGCTCGTTGGTCTAGTGGCATGATTCTCGCTTAGGGTGCGAGAGGTCCCGGGTTCACATCCCGGACGAGCCC	5.36	0.4	
GGCTCGTTGGTCTAGTGGGATGATTCTCGCTTAGGGTGCGAGAGGTCCCGGGTTCACATCCCGGACGAGCCC	3.64	0.32	
GGCTCGTTGGTCTAGGGGTATGATTCTCGCTTAGGGTGCGAGAGGTCCCGGGTTCACAACCCGGACGAGCCC	1.15	0.45	
GGCTCGTTGGTCTAGGGGTATGATTCTCGCTTAGGGTGCGAGAGGTCCCGGGTTCACAGCCCGGACGAGCCC	1.8	0.23	0.25
GGCTCGTTGGTCTAGGGGTATGATTCTCGCTTAGGGTGCGAGAGGTCCCGGGTTCACACCCCGGACGAGCCC	0.262	0.17	
GGCTCGTTGGTCTAGGGGAATGATTCTCGCTTAGGGTGCGAGAGGTCCCGGGTTCACGTCCCGGACGAGCCC	3.51	0.17	
GGCTCGTTGGTCTAGGGGAATGATTCTCGCTTAGGGTGCGAGAGGTCCCGGGTTCACTTCCCGGACGAGCCC	4.49	0.41	
GGCTCGTTGGTCTCGCGGTATGATTCTCGCTTAGGGTGCGAGAGGTCCCGGGTTCAGATCCCGGACGAGCCC	3.79	0.25	
GGCTCGTTGGTCTAGGGGTATGATTCTCGCTTAGGGTGCGAGAGGTCCCGGGTCCACATCCCGGACGAGCCC	1.89	0.07	0.67
GGCTCGTTGGTCTAGTGGTATGATTCTCGCTTAGGGTGCGAGAGGTCCCGGGTTCAGATCCCGGACGAGCCC	3.1	0.4	
GGCTCGTTGGTCTAGGGGGATGATTCTCGCTTAGGGTGCGAGAGGTCCCGGGTTCACATCCCGGACGAGCCC	3.5	0.41	
GGCTCGTTGGTCTAGGGGAATGATTCTCGCTTAGGGTGCGAGAGGTCCCGGGTTCACATCCCGGACGAGCCC	0.625	0.34	
GGCTCGTTGGTCTAGGGGCATGATTCTCGCTTAGGGTGCGAGAGGTCCCGGGTTCACATCCCGGACGAGCCC	1.06	0.38	

Source: the supplement of paper PMC6445147
